# According to the supplement of paper PMC10849652:
# Protein sequences, listed by entry. Tags and fused reporters are not part of them. Lines headed by an entry give the natural chain unless they say otherwise; changes in a name come on top.
# UniProt Q92536: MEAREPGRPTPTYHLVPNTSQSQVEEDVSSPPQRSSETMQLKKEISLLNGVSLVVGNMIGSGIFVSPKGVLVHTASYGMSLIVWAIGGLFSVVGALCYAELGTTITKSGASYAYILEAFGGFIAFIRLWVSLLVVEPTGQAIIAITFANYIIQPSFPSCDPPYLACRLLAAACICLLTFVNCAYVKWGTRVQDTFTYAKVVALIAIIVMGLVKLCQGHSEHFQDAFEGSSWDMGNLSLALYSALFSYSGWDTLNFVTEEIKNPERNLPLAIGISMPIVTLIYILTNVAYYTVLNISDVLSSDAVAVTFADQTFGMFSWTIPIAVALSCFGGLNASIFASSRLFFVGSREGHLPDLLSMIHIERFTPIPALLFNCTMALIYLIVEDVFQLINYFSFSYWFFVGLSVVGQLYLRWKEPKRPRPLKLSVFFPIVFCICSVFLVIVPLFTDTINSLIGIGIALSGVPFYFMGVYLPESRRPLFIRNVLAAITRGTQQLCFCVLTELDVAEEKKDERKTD
# UniProt O60749: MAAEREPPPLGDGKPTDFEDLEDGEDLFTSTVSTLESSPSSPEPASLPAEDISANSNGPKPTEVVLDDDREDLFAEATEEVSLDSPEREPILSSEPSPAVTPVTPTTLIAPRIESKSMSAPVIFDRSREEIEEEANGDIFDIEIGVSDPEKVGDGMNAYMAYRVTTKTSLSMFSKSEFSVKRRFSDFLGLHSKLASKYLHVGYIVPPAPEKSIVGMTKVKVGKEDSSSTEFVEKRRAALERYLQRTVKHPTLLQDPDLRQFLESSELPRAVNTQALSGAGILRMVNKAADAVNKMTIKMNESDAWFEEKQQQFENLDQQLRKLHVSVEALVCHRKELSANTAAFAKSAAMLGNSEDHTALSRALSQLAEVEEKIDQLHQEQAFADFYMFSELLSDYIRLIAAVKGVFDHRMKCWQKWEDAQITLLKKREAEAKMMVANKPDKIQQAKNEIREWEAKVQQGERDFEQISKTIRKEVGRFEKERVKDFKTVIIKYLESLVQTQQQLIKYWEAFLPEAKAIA
# UniProt P57768: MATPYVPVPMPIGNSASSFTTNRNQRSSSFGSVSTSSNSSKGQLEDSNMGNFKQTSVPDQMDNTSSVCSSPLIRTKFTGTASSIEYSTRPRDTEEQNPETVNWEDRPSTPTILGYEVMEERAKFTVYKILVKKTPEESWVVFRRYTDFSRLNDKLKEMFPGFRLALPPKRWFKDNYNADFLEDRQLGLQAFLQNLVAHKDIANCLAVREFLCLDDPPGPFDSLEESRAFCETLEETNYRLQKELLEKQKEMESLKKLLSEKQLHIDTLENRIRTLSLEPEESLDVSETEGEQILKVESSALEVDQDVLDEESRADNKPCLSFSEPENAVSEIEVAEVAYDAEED
# UniProt Q92581: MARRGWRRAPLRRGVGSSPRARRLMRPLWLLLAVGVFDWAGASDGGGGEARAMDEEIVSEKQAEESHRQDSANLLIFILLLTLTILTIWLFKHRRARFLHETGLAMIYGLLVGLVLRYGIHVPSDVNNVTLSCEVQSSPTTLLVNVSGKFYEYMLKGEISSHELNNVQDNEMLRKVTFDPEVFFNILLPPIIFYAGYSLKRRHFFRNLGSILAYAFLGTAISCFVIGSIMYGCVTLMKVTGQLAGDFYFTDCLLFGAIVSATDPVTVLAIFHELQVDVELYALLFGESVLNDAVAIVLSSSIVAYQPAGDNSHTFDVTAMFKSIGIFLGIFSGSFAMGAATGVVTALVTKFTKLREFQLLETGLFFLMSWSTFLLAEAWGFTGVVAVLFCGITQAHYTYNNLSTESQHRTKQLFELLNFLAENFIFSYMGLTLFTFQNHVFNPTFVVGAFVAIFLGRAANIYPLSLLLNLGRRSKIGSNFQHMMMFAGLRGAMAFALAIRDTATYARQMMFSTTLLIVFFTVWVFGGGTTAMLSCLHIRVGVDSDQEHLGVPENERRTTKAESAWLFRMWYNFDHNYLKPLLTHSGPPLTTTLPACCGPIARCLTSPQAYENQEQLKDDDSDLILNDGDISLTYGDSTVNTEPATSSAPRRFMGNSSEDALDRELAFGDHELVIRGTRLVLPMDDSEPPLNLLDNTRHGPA
# UniProt Q13425: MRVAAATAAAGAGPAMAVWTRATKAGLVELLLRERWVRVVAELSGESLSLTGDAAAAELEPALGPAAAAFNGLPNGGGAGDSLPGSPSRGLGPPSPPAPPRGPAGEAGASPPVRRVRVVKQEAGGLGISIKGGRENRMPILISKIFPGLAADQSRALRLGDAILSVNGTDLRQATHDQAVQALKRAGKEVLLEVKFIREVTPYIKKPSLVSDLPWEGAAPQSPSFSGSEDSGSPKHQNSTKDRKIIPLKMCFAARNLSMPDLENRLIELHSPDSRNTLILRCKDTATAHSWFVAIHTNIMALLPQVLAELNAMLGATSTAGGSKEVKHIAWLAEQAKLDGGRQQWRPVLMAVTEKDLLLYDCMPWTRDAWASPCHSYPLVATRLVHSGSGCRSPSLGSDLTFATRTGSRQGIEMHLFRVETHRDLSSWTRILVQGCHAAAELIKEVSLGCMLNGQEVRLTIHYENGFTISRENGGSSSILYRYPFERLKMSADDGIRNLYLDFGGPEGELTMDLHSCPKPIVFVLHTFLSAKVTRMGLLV
# UniProt O15198: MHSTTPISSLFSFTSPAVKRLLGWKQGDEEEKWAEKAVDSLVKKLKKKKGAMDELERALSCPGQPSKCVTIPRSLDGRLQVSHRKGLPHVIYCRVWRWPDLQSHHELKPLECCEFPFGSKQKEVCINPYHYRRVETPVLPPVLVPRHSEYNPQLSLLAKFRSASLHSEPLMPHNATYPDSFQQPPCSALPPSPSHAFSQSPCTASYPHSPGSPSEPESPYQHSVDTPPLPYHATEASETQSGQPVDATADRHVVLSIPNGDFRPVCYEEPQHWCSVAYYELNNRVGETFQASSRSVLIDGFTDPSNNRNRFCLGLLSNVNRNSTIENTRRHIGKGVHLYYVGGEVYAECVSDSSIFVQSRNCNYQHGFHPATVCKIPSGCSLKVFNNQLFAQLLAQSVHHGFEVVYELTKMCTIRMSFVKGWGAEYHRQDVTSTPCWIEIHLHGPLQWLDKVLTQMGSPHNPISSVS
# UniProt Q0VAQ4: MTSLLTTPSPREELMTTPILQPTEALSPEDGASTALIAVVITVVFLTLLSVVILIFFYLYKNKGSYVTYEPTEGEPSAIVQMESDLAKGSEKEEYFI
# UniProt Q86T20: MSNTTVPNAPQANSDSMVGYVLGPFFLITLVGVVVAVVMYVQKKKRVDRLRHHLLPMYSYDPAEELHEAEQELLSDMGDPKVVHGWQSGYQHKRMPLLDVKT
# UniProt Q9H4L7: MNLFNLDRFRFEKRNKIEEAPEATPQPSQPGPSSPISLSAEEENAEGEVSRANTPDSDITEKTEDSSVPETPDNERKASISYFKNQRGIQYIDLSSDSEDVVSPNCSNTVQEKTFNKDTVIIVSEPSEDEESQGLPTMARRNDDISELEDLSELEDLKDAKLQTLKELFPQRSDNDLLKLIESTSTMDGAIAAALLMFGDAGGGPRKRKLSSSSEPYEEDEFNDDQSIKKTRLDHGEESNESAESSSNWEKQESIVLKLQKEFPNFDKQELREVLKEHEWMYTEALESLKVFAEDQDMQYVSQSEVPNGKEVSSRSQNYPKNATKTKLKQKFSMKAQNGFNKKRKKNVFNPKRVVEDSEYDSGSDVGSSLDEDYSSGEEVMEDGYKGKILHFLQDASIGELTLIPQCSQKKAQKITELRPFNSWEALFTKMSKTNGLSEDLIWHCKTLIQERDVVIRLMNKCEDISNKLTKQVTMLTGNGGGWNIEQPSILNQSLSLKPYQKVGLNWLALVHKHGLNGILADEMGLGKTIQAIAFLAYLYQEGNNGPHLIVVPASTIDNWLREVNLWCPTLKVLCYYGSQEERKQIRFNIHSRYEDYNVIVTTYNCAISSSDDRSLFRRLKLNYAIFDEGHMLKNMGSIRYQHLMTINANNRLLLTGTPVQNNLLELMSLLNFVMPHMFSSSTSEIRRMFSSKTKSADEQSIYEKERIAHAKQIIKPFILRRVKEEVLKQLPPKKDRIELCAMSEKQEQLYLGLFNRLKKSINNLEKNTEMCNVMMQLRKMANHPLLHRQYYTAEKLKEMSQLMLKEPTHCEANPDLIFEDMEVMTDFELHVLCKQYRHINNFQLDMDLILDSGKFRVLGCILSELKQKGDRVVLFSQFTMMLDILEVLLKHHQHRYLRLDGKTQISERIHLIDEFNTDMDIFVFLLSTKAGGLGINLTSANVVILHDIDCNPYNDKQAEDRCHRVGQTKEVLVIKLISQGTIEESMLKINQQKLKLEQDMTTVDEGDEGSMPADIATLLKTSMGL
# UniProt P62318, whole entry, looked up: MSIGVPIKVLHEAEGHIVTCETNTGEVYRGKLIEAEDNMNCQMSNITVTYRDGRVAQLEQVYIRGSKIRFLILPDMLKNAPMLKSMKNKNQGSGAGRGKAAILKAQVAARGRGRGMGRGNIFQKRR
# UniProt O60271: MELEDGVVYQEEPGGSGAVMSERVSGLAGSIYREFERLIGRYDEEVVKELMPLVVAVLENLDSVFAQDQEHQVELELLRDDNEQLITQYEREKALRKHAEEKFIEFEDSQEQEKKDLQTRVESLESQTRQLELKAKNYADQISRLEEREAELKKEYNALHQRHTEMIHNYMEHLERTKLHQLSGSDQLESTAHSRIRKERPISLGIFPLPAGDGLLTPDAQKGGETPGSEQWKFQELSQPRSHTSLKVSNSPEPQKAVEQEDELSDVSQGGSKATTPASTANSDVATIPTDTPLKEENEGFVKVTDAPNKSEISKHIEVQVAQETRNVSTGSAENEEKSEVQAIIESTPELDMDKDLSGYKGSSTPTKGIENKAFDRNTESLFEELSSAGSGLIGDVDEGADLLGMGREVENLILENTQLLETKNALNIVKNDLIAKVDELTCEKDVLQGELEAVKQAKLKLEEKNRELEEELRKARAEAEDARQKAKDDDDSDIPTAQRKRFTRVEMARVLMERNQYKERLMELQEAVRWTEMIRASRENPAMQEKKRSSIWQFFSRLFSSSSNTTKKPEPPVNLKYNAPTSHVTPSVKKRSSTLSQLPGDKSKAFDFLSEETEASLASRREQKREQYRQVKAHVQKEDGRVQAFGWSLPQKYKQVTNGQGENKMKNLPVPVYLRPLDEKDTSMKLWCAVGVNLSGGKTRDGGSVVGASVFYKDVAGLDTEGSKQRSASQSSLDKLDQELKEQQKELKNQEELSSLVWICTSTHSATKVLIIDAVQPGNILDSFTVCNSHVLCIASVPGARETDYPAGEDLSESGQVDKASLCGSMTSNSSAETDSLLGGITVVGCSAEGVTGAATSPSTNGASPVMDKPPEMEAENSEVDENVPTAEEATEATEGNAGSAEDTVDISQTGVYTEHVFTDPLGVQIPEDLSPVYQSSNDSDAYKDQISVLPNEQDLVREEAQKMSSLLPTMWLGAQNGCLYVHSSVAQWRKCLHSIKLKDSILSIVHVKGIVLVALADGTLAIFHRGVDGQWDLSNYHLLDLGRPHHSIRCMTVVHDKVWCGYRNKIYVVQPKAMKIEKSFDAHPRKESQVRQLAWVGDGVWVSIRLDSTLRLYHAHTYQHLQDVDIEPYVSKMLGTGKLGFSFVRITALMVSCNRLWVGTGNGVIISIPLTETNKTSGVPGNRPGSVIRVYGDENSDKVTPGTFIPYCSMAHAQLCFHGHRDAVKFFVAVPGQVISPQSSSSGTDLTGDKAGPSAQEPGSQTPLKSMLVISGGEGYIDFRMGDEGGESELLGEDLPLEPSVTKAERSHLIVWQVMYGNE
# UniProt Q9Y5X1: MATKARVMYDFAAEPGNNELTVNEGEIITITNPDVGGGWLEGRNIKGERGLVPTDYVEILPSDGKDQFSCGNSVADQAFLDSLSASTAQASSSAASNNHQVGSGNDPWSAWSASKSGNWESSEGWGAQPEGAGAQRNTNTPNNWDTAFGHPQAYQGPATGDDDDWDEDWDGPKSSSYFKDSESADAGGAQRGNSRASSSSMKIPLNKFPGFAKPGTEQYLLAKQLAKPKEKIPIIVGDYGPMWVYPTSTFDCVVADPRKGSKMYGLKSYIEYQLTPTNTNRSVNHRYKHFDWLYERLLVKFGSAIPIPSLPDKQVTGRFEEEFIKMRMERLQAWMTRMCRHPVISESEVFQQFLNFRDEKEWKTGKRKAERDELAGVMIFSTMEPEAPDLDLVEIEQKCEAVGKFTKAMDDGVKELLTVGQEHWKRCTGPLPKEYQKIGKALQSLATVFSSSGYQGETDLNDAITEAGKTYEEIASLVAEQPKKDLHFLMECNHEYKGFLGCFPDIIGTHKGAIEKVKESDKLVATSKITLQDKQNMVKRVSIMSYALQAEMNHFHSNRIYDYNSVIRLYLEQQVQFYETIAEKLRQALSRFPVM
# The list shows a part of the results.
# Tests used:
# Assay in all cases: log2 fold change, soluble protein after heating vs DMSO (PISA); higher = thermal stabilisation; K562 cells, 10 uM, 30 min; active = over 0.2 and 3.5 SD of the protein, either way, in both replicates (recomputed)
# saracatinib = compound: CN1CCN(CCOc2cc(OC3CCOCC3)c3c(Nc4c(Cl)ccc5c4OCO5)ncnc3c2)CC1 [saracatinib]
# In short: (§1)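 For each measurement, 10 μM compound was applied for 30 min to K562 cells at 2×10^6 cells/mL. Aliquots were heated for 3 min across 48°C-58°C, pooled, and extracted in PBS with 0.5% NP-40 at 4°C; the supernatant after 21,000xg for 90 min was soluble protein. This was quantified by TMTpro 16plex LC-MS/MS with channel sums equalised, and thermal stability was reported relative to control samples from duplicates, on a log2 fold-change scale.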
# sotrastaurin = compound: CN1CCN(c2nc(C3=C(c4c[nH]c5ccccc45)C(=O)NC3=O)c3ccccc3n2)CC1 [sotrastaurin]
# In short: as §1
# Tubastatin A = compound: CN1CCc2c(c3ccccc3n2Cc2ccc(C(=O)NO)cc2)C1 [Tubastatin A]
# In short: as §1
# [1] = compound: CNC(=O)C1=CC=CC=C1NC2=NC(=NC=C2Cl)NC3=C(C=C(C=C3)N4CCOCC4)OC
# In short: as §1
# defactinib = compound: CNC(=O)c1ccc(Nc2ncc(C(F)(F)F)c(NCc3nccnc3N(C)S(C)(=O)=O)n2)cc1 [defactinib]
# In short: as §1
# rucaparib = compound: CNCc1ccc(-c2[nH]c3cc(F)cc4c3c2CCNC4=O)cc1 [rucaparib]
# In short: as §1
# [2] = compound: CNc1nc(-c2ccc3c(N)n[nH]c3c2)cc(N2C[C@@H](C(=O)NC3CCCCC3)CC[C@H]2C)n1
# In short: as §1
# encorafenib = compound: COC(=O)N[C@@H](C)CNc1nccc(-c2cn(C(C)C)nc2-c2cc(Cl)cc(NS(C)(=O)=O)c2F)n1 [encorafenib]
# In short: as §1
# [3] = compound: COC(=O)[C@H](CCSC)NC(=O)C1=C(C=C(C=C1)NC[C@H](CS)N)C2=CC=CC=C2
# In short: as §1
# [4] = compound: COC1=CC=C(C=C1)CN2C=CC3=C2C=C(C=C3)C(=O)NO
# In short: as §1
# filanesib = compound: CON(C)C(=O)N1N=C(c2cc(F)ccc2F)S[C@@]1(CCCN)c1ccccc1 [filanesib]
# In short: as §1
# zotarolimus = compound: CO[C@H]1C[C@@H]2CC[C@@H](C)[C@@](O)(O2)C(=O)C(=O)N2CCCC[C@H]2C(=O)O[C@H]([C@H](C)C[C@@H]2CC[C@H](n3cnnn3)[C@H](OC)C2)CC(=O)[C@H](C)/C=C(\C)[C@@H](O)[C@@H](OC)C(=O)[C@H](C)C[C@H](C)/C=C/C=C/C=C/1C [zotarolimus]
# In short: as §1
# idasanutlin = compound: COc1cc(C(=O)O)ccc1NC(=O)[C@@H]1N[C@@H](CC(C)(C)C)[C@](C#N)(c2ccc(Cl)cc2F)[C@H]1c1cccc(Cl)c1F [idasanutlin]
# In short: as §1
# alisertib = compound: COc1cc(Nc2ncc3c(n2)-c2ccc(Cl)cc2C(c2c(F)cccc2OC)=NC3)ccc1C(=O)O [alisertib]
# In short: as §1
# [5] = compound: COc1cc2nc(-c3cc(F)ccc3O)nc(N[C@@H]3CNC[C@H]3C(C)(C)O)c2cc1OC
# In short: as §1
# gefitinib = compound: COc1cc2ncnc(Nc3ccc(F)c(Cl)c3)c2cc1OCCCN1CCOCC1 [gefitinib]
# In short: as §1
# [6] = compound: COc1cccc2cc(-c3nc([C@H]4CC[C@H](C(=O)O)CC4)n4ncnc(N)c34)[nH]c12
# In short: as §1
# lapatinib = compound: CS(=O)(=O)CCNCc1ccc(-c2ccc3ncnc(Nc4ccc(OCc5cccc(F)c5)c(Cl)c4)c3c2)o1 [lapatinib]
# In short: as §1
# pictilisib = compound: CS(=O)(=O)N1CCN(Cc2cc3nc(-c4cccc5[nH]ncc45)nc(N4CCOCC4)c3s2)CC1 [pictilisib]
# In short: as §1
# alvocidib = compound: CN1CC[C@H](c2c(O)cc(O)c3c(=O)cc(-c4ccccc4Cl)oc23)[C@H](O)C1 [alvocidib]
# In short: as §1
Target,log2 fold change (saracatinib),log2 fold change (sotrastaurin),log2 fold change (Tubastatin A),log2 fold change [1],log2 fold change (defactinib),log2 fold change (rucaparib),log2 fold change [2],log2 fold change (encorafenib),log2 fold change [3],log2 fold change [4],log2 fold change (filanesib),log2 fold change (zotarolimus),log2 fold change (idasanutlin),log2 fold change (alisertib),log2 fold change [5],log2 fold change (gefitinib),log2 fold change [6],log2 fold change (lapatinib),log2 fold change (pictilisib),log2 fold change (alvocidib)
SLC7A6 (UniProt Q92536),inactive: 0.018,inactive: 0.022,inactive: 0,inactive: -0.16,inactive: -0.056,inactive: -0.034,inactive: 0.027,inactive: 0.002,inactive: -0.047,active: -0.236,inactive: 0.009,inactive: -0.001,inactive: -0.02,inactive: -0.069,inactive: 0.028,inactive: 0.073,inactive: 0.048,inactive: 0.033,inactive: 0.048,
SNX2 (UniProt O60749),inactive: 0.006,inactive: 0.002,inactive: 0.004,inactive: -0.114,inactive: -0.068,inactive: -0.004,inactive: 0.024,inactive: 0,inactive: -0.029,inactive: 0.011,inactive: -0.156,inactive: 0.037,inactive: 0,inactive: 0.013,inactive: -0.101,inactive: -0.105,inactive: 0.029,inactive: 0.001,inactive: -0.104,
SNX16 (UniProt P57768),inactive: 0.052,inactive: 0.022,,inactive: 0.038,inactive: -0.067,inactive: 0.142,inactive: 0.02,inactive: -0.041,inactive: -0.033,inactive: -0.036,inactive: -0.033,inactive: -0.018,,inactive: -0.123,inactive: 0.006,inactive: -0.1,inactive: -0.013,inactive: 0.035,inactive: -0.05,inactive: 0.087
SLC9A6 isoform 2 (UniProt Q92581),inactive: 0.06,inactive: 0.048,inactive: -0.027,inactive: 0.001,inactive: -0.027,inactive: -0.015,inactive: -0.07,inactive: 0.008,inactive: 0.053,inactive: -0.077,inactive: -0.051,inactive: -0.062,inactive: -0.011,inactive: -0.013,inactive: 0.062,inactive: -0.017,inactive: 0.071,inactive: 0.003,inactive: 0.129,
SNTB2 (UniProt Q13425),inactive: -0.055,inactive: 0.005,inactive: 0.086,,inactive: -0.141,inactive: 0.021,inactive: 0.035,inactive: 0.02,inactive: -0.054,,inactive: 0.007,inactive: 0.011,inactive: -0.032,,inactive: 0.041,inactive: 0.016,,inactive: -0.013,inactive: 0.095,inactive: -0.198
SP100 isoform 4 (UniProt P23497),inactive: 0.058,inactive: -0.003,inactive: -0.015,inactive: 0.018,inactive: -0.087,inactive: -0.065,inactive: -0.092,inactive: -0.06,inactive: 0.095,inactive: 0.05,inactive: 0,inactive: 0.013,inactive: -0.022,inactive: -0.026,active: -0.242,inactive: 0.024,inactive: 0.036,inactive: 0.188,inactive: 0.013,
SMAD9 (UniProt O15198),inactive: 0.076,inactive: 0.078,inactive: -0.003,inactive: -0.013,inactive: -0.076,inactive: -0.094,inactive: 0.055,inactive: -0.001,inactive: -0.049,inactive: -0.002,inactive: 0.009,inactive: -0.033,inactive: -0.132,inactive: -0.014,inactive: -0.012,inactive: 0.066,inactive: -0.005,inactive: 0.051,inactive: 0.148,
SMAGP (UniProt Q0VAQ4),inactive: 0.147,inactive: 0.256,inactive: 0.152,,,inactive: 0.019,inactive: -0.132,inactive: -0.097,,,inactive: 0.191,inactive: 0.113,inactive: 0.037,inactive: -0.207,inactive: -0.197,inactive: 0.054,inactive: -0.26,inactive: -0.307,,inactive: -0.094
SMIM29 (UniProt Q86T20),inactive: -0.105,inactive: 0.001,,inactive: -0.043,,,inactive: -0.104,,,,inactive: 0.094,inactive: 0.09,,,,,,,,inactive: 0.161
SMARCAD1 isoform 2 (UniProt Q9H4L7),inactive: -0.086,inactive: -0.043,inactive: 0.053,inactive: 0.016,inactive: -0.099,inactive: -0.056,inactive: 0.035,inactive: 0.029,inactive: -0.023,inactive: 0.027,inactive: -0.098,inactive: 0.028,inactive: -0.073,inactive: -0.026,inactive: 0.06,inactive: -0.062,inactive: -0.004,inactive: 0.026,inactive: 0.07,
SMPD4 isoform 4 (UniProt Q9NXE4),inactive: 0.154,inactive: -0.082,inactive: 0.007,inactive: -0.041,inactive: -0.056,inactive: 0.043,inactive: -0.071,inactive: -0.081,inactive: 0,inactive: 0.051,inactive: -0.223,inactive: 0.011,inactive: -0.049,inactive: 0.145,inactive: -0.109,inactive: 0.02,inactive: -0.043,inactive: -0.013,inactive: -0.034,
SNRPD3 (UniProt P62318),inactive: 0.004,inactive: 0.068,inactive: -0.097,inactive: 0.038,inactive: 0.137,inactive: 0.017,inactive: -0.098,inactive: -0.027,inactive: -0.003,inactive: -0.169,inactive: 0.152,inactive: -0.051,inactive: 0.025,inactive: -0.132,inactive: 0.039,inactive: -0.019,inactive: 0.023,inactive: 0.028,inactive: 0.064,
SPAG9 (UniProt O60271),inactive: 0.014,inactive: -0.037,inactive: 0.003,inactive: 0.02,inactive: -0.044,inactive: 0.049,inactive: 0.034,inactive: 0.023,inactive: -0.011,inactive: 0.005,inactive: -0.041,inactive: -0.011,inactive: 0,inactive: -0.034,inactive: -0.034,inactive: -0.01,inactive: -0.031,inactive: -0.026,inactive: 0.041,
SMC5 (UniProt Q8IY18),inactive: -0.005,inactive: -0.075,inactive: -0.034,inactive: 0.056,inactive: -0.05,inactive: 0.015,inactive: -0.046,inactive: -0.045,inactive: -0.014,inactive: -0.055,inactive: 0.009,inactive: -0.032,inactive: -0.081,inactive: 0.047,inactive: 0.009,inactive: 0.034,inactive: 0.028,inactive: 0.018,inactive: 0.024,
SLIRP (UniProt Q9GZT3),inactive: -0.068,inactive: -0.141,inactive: 0.019,inactive: -0.045,inactive: -0.005,inactive: 0.148,inactive: -0.185,inactive: -0.094,inactive: 0.096,inactive: 0.088,active: -0.429,inactive: -0.054,inactive: 0.041,inactive: -0.08,active: -0.648,inactive: 0.041,inactive: 0.023,inactive: -0.042,inactive: -0.15,
SNX9 (UniProt Q9Y5X1),inactive: 0.01,inactive: -0.064,inactive: -0.025,inactive: 0.038,inactive: -0.112,inactive: 0.058,inactive: -0.005,inactive: 0.049,inactive: 0,inactive: -0.002,inactive: -0.017,inactive: 0.004,inactive: -0.01,inactive: -0.013,inactive: 0.019,inactive: 0.038,inactive: -0.059,inactive: -0.034,inactive: -0.036,

# Already shown: entries from further up.
Target,log2 fold change (saracatinib),log2 fold change (sotrastaurin),log2 fold change (Tubastatin A),log2 fold change [1],log2 fold change (defactinib),log2 fold change (rucaparib),log2 fold change [2],log2 fold change (encorafenib),log2 fold change [3],log2 fold change [4],log2 fold change (filanesib),log2 fold change (zotarolimus),log2 fold change (idasanutlin),log2 fold change (alisertib),log2 fold change [5],log2 fold change (gefitinib),log2 fold change [6],log2 fold change (lapatinib),log2 fold change (pictilisib),log2 fold change (alvocidib)
SLC7A6 (UniProt Q92536),inactive: 0.018,inactive: 0.022,inactive: 0,inactive: -0.16,inactive: -0.056,inactive: -0.034,inactive: 0.027,inactive: 0.002,inactive: -0.047,active: -0.236,inactive: 0.009,inactive: -0.001,inactive: -0.02,inactive: -0.069,inactive: 0.028,inactive: 0.073,inactive: 0.048,inactive: 0.033,inactive: 0.048,
SNX2 (UniProt O60749),inactive: 0.006,inactive: 0.002,inactive: 0.004,inactive: -0.114,inactive: -0.068,inactive: -0.004,inactive: 0.024,inactive: 0,inactive: -0.029,inactive: 0.011,inactive: -0.156,inactive: 0.037,inactive: 0,inactive: 0.013,inactive: -0.101,inactive: -0.105,inactive: 0.029,inactive: 0.001,inactive: -0.104,
SNX16 (UniProt P57768),inactive: 0.052,inactive: 0.022,,inactive: 0.038,inactive: -0.067,inactive: 0.142,inactive: 0.02,inactive: -0.041,inactive: -0.033,inactive: -0.036,inactive: -0.033,inactive: -0.018,,inactive: -0.123,inactive: 0.006,inactive: -0.1,inactive: -0.013,inactive: 0.035,inactive: -0.05,inactive: 0.087
